Experimental data taken from publication PMC3814787, “Potential Regulatory Interactions of Escherichia coli RraA Protein with DEAD-box Helicases* ^([image sbox.jpg])” (The Journal of Biological Chemistry, 2013).
These are yes or no findings as the source states them, for the method shown. Some entries that bind do so weakly or less than the wild type. One block for each binder: values may come before it.

Assays:
[1] = molecular target: T1, Regulator of ribonuclease activity A (RraA) (Escherichia coli) (UniProt P0A8R0); test: ITC; data not shown; RraA and RhlB CTE; both purified
T1 sequence: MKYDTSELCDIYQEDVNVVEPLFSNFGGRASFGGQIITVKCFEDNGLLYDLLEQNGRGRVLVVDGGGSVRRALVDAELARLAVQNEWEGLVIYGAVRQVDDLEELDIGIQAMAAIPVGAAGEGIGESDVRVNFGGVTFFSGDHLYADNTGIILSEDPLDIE

DEAD-box helicase DbpA = molecular target: T2, DEAD-box helicase DbpA (Escherichia coli, UniProt P21693 1-457); test: AUC; sedimentation velocity, absorbance at 280 nm, 20 °C; 150 mM NaCl, 50 mM HEPES pH 7.5, 10% glycerol; mixtures at 1:1 helicase:RraA trimer, about 10 μM; both purified
T2 construct: DbpA, DEAD-box RNA helicase, Escherichia coli; monomer of 49 kDa as printed; source: E. coli BL21(DE3), purified (ammonium sulfate precipitation, heparin column)
T2 sequence (looked up): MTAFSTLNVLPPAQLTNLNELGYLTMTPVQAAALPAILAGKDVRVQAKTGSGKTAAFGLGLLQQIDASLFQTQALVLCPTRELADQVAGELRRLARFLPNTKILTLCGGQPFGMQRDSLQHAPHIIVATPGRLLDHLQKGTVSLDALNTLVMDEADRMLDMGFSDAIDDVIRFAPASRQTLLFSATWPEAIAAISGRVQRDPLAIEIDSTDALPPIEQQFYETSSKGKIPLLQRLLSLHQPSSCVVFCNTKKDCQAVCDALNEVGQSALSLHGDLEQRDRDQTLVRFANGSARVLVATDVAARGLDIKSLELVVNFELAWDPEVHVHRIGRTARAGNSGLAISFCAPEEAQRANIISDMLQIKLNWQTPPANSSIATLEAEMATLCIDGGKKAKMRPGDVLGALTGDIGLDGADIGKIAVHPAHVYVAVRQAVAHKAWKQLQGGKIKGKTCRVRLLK

[2] = molecular target: DEAD-box helicase RhlB (Escherichia coli) (UniProt P0A8J8); test: as above

binding [1]: binds
Binder: YRLTRPRTGNGPRRTGAPRNRRRSG [RhlB(398-421) peptide]

binding (DEAD-box helicase DbpA): no binding (tested: ∼10 μM)
B1: DEAD-box helicase DbpA (enzyme, UniProt P21693 1-457)
chain: MTAFSTLNVLPPAQLTNLNELGYLTMTPVQAAALPAILAGKDVRVQAKTGSGKTAAFGLGLLQQIDASLFQTQALVLCPTRELADQVAGELRRLARFLPNTKILTLCGGQPFGMQRDSLQHAPHIIVATPGRLLDHLQKGTVSLDALNTLVMDEADRMLDMGFSDAIDDVIRFAPASRQTLLFSATWPEAIAAISGRVQRDPLAIEIDSTDALPPIEQQFYETSSKGKIPLLQRLLSLHQPSSCVVFCNTKKDCQAVCDALNEVGQSALSLHGDLEQRDRDQTLVRFANGSARVLVATDVAARGLDIKSLELVVNFELAWDPEVHVHRIGRTARAGNSGLAISFCAPEEAQRANIISDMLQIKLNWQTPPANSSIATLEAEMATLCIDGGKKAKMRPGDVLGALTGDIGLDGADIGKIAVHPAHVYVAVRQAVAHKAWKQLQGGKIKGKTCRVRLLK

binding [2]: no binding (tested: ∼10 μM)
B2: DEAD-box helicase RhlB (enzyme, Escherichia coli, UniProt P0A8J8 1-421, looked up)
chain: MSKTHLTEQKFSDFALHPKVVEALEKKGFHNCTPIQALALPLTLAGRDVAGQAQTGTGKTMAFLTSTFHYLLSHPAIADRKVNQPRALIMAPTRELAVQIHADAEPLAEATGLKLGLAYGGDGYDKQLKVLESGVDILIGTTGRLIDYAKQNHINLGAIQVVVLDEADRMYDLGFIKDIRWLFRRMPPANQRLNMLFSATLSYRVRELAFEQMNNAEYIEVEPEQKTGHRIKEELFYPSNEEKMRLLQTLIEEEWPDRAIIFANTKHRCEEIWGHLAADGHRVGLLTGDVAQKKRLRILDEFTRGDLDILVATDVAARGLHIPAVTHVFNYDLPDDCEDYVHRIGRTGRAGASGHSISLACEEYALNLPAIETYIGHSIPVSKYNPDALMTDLPKPLRLTRPRTGNGPRRTGAPRNRRRSG
notes: RhlB, DEAD-box RNA helicase, Escherichia coli; monomer of 47 kDa as printed; The printed mass of 47 kDa fits the whole protein; 'full-length RhlB' is said only of the crystallisation trials
